# Results are given in words; binding and its absence hold for the method and conditions named. For part of these data: Binding seen in cells or lysates may run through a third protein. Some results given as binding are weak or reduced against the parent protein; the word gives no strength.
# Amino acid sequences for entries named in this document (tags omitted). Residues count along the entry.
# UniProt Q99731, residues 22-98: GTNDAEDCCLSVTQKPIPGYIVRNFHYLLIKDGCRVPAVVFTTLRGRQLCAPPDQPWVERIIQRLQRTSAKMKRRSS
# UniProt P49407: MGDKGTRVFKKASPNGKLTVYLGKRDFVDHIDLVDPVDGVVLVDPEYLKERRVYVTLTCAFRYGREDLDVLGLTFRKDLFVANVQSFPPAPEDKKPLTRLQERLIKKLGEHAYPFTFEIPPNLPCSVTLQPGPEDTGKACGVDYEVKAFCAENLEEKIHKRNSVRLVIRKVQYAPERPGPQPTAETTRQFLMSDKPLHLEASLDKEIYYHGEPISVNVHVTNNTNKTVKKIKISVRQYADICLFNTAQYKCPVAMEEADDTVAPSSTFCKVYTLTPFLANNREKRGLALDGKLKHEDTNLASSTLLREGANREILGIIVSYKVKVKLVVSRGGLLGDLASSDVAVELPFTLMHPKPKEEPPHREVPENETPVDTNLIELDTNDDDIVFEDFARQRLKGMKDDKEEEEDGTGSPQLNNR
# UniProt P32121: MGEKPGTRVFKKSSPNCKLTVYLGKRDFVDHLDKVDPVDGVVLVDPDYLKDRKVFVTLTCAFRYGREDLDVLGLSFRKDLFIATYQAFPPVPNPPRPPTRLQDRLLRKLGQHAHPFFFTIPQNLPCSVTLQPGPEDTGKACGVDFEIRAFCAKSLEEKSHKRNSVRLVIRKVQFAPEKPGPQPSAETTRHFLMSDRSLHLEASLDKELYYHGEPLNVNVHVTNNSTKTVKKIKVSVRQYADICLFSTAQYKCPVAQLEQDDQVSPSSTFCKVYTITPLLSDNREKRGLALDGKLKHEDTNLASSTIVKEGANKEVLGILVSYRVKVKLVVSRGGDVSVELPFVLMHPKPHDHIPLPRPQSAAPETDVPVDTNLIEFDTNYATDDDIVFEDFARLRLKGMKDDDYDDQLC
# T1: CCRL2 (human, UniProt O00421 1-344)
# T1 sequence (looked up): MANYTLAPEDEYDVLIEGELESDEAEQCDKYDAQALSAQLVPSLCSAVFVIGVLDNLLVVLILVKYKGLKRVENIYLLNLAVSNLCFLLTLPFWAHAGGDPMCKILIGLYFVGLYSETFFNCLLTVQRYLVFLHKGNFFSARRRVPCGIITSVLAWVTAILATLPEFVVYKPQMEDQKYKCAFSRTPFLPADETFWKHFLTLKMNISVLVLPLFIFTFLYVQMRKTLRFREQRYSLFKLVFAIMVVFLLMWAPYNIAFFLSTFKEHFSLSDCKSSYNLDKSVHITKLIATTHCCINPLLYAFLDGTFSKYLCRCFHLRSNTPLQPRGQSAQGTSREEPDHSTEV
# T2: CMKLR1-Venus (human) (UniProt Q99788)
# T2 sequence: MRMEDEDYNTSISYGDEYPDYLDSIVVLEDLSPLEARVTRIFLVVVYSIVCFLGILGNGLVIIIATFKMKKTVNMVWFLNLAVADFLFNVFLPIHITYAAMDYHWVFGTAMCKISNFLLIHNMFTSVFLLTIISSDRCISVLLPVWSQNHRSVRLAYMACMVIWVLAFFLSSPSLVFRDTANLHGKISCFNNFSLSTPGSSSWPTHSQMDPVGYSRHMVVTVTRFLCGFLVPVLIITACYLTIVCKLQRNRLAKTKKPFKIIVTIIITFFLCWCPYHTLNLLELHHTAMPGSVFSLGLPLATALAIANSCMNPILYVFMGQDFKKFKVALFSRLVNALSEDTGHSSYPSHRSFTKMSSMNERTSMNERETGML
# T3: CCRL2-Venus (human) (UniProt O00421)
# T3 sequence: T1 sequence (looked up)
# T4: GPR1-Venus (human) (UniProt P46091)
# T4 sequence: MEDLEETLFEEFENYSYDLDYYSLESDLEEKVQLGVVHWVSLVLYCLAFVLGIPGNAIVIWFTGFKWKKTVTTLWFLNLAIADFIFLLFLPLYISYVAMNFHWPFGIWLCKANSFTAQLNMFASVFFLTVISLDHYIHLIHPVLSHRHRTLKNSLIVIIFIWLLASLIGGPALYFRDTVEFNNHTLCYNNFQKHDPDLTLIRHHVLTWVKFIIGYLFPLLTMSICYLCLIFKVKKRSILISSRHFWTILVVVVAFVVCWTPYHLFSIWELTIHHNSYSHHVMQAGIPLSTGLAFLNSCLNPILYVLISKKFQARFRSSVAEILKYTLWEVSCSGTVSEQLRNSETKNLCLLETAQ
# T5: GPR1 (human, UniProt P46091 1-355)
# T5 construct: GPR1, human chemerin receptor, expressed on CHO-K1 cells; The functional rows with G protein biosensors (HEK293T, transfected) and with MEF cells also use this molecule; source: CHO-K1, stably expressing (Clone 8), on cells
# T5 sequence (looked up): T4 sequence
# T6: CMKLR1 (human) (UniProt Q99788)
# T6 sequence: T2 sequence
# Columns and labels:
# CCRL2 [1] = target: T1, CCRL2; test: radioligand binding; CHO-K1 cells expressing CCRL2 with 0.1 nM [125I]-CCL19, with or without an excess (300 nM) of unlabeled chemerin, CCL5, CCL19 or CCL21; only the binder purified
# CMKLR1-Venus (human) = target: T2, CMKLR1-Venus (human); test: FRET or BRET; BRET proximity assay in living HEK293T cells co-transfected with β-arrestin-Rluc and receptor-Venus; PBS plus 0.1% glucose at 25°C; coelenterazine h 5 μM; stimulation with 100 nM chemerin; also with Pertussis toxin pretreatment
# CCRL2-Venus (human) = target: T3, CCRL2-Venus (human); test: as above
# GPR1-Venus (human) = target: T4, GPR1-Venus (human); test: as above
# CCRL2 [2] = target: T1, CCRL2; test: radioligand binding; CHO-K1 cells expressing the receptor with 0.1 nM [125I]-[145–157]-chemerin as tracer, alone or with an excess or increasing concentrations of unlabelled chemerin or chemerin 9; 50 mM HEPES pH 7.4, 1 mM CaCl2, 5 mM MgCl2, 250 mM sucrose, 0.5% BSA; 30 min at room temperature; filtration; only the binder purified
# GPR1 = target: T5, GPR1; test: as above
# CMKLR1 (human) = target: T6, CMKLR1 (human); test: as above
molecule,measurement,setting,value
[125I]-CCL19 (from UniProt Q99731 22-98) (ligand),binding,CCRL2 [1],binds weakly
β-arrestin1-Rluc (from UniProt P49407 1-418),binding,CMKLR1-Venus (human),binds
same,binding,CCRL2-Venus (human),no binding
same,binding,GPR1-Venus (human),binds
β-arrestin2-Rluc (from UniProt P32121 1-409),binding,CMKLR1-Venus (human),binds
same,binding,CCRL2-Venus (human),no binding
PHSFYFPGQFAFS (125I label (residue not stated)) [[125I]-[145–157]-chemerin],binding,CCRL2 [2],no binding (tested: 0.1 nM)
same,binding,GPR1,binds
same,binding,CMKLR1 (human),binds

# — paper PMC5055294 (PLoS ONE, 2016)
